## Results of single-concentration screens

Values are the deposited “Percent Effect”, in %. The controls that fix the scale are not given in the record; negative values are as filed. The compounds are a random part of those screened.

Mtb glucose medium: 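Whole-cell growth test on Mycobacterium tuberculosis, read after 3 days in glucose-containing 7H9 medium; the read-out is not stated. Compounds at 500 µM. The record gives no direction; compounds that gave an IC50 in retests scored well above the rest, so higher reads as more growth inhibition. Size under these conditions: about 18,000 compounds, about 1,400 of them at 50% or above in at least one test.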
Mtb cholesterol medium: 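Phenotypic screen: M. tuberculosis growth, cholesterol and DPPC medium, 4 days; the read-out is not stated. Concentration: 500 µM. The record gives no direction; compounds that gave an IC50 in retests scored well above the rest, so higher reads as more growth inhibition. Of about 18,000 compounds tested this way, about 900 (5%) reached 50% or more in at least one test.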

Compound	Mtb glucose medium	Mtb cholesterol medium
OCCCNCCO	6.779%	14.76%
O=C(CCNC(=O)c1ccco1)Nc1ccncc1Cl	2.09%	-17.31%
CN(C)C[C@@H]1CN(C)C[C@H]1NC(=O)c1ccnnc1	3.266%	-0.664%
NS(=O)(=O)CC1CCCN1Cc1cccc(Br)c1 (stereo not given)	26.64%	20.26%
COCc1nc(CNc2nc(N)ncc2C)no1	3.715%	9.848%
CN(CCC#N)CC1CCN(CCO)CC1	-1.858%	-6.852%
NC[C@@H]1C[C@H]2CC[C@H]1O2	6.031%	11.4%
CCO[C@H]1COC[C@@H]1NC(=O)c1cnc(O)cn1	-0.2969%	1.508%
COCCNCC(=O)Nc1cccc(CSC)c1	51.91%	26.19%
COCCS(=O)(=O)NCC(C)(O)c1cccs1 (stereo not given)	10.19%	-2.583%
CC(=O)NCC(=O)Nc1ccc2cccc(Cl)c2n1	-1.077%	-9.39%
O=C1NCCNC1c1ccc(C(F)(F)F)cc1 (stereo not given)	12.61%	13.64%
CCOCC(C)Nc1ccc(C)c(S(C)(=O)=O)c1 (stereo not given)	43.06%	69.69%
CCC(=O)N1CCC(C2CCN(C(C)=O)CC2)C1 (stereo not given)	-18.93%	-23.05%
CC(C)Cn1ccnc1CNc1ncccc1F	63.13%	55.12%
CC1(C(=O)NCC2CCCCC2)CCCCC(=O)N1 (stereo not given)	-5.329%	-19.17%
c1cncc(CNCc2ccc3c(c2)OCCCO3)c1	29.06%	20.87%
Cc1ocnc1CNC(=O)CC1CSCCS1 (stereo not given)	6.176%	5.819%
Cn1ncc2ccc(CN)cc21	13.74%	5.824%
CC(C)C(NCCCF)C(=O)N1CCOCC1 (stereo not given)	-9.721%	-14.74%
COCCNC(=O)NCc1cccc(-n2cccn2)c1	34.02%	16.36%
CC(=O)NCc1ccc(OC2CCN(C)CC2)cc1	13.28%	16.17%
CCCN1CCC(NC(=O)c2cccnc2)CC1	9.352%	10.51%
CCCn1ncnc1-c1cccc(C#N)c1	49.51%	38.26%
CS(=O)(=O)NCCC(=O)NC1CCc2ccccc2C1 (stereo not given)	24.94%	-12.86%
O=S1(=O)CCC(NC2CCNCC2)C1 (stereo not given)	2.586%	1.249%
Cc1nc2ccc(NC(=O)C3=NNC(=O)CC3)cc2s1	4.726%	5.477%
CC(C)(C)[C@H](N)C(=O)N1CCC(N2CCCC2=O)CC1	-8.18%	-20.44%
COc1ccc2c(c1)CN(C(=O)c1ccccn1)CC2	22.96%	21.15%
NCC1(CCO)CCOC1 (stereo not given)	2.84%	4.673%
CN1CCN(Cc2ccncc2)C2(CCCCC2)C1	-7.075%	0.2338%
CN1C(=O)C[C@@H](N)[C@@H]1c1ccc(Cl)c(Cl)c1	19.2%	-1.328%
O=C1CCC(C(=O)Nc2cccnc2)=NN1	-19.52%	-25.61%
Cn1cncc1CCN	2.588%	13.31%
COCCOC1CCN(S(=O)(=O)c2cn(C)cn2)CC1	-0.5821%	-16.58%
Cc1cccc(S(=O)(=O)N2CC[C@H](N)C2)c1C#N	-3.853%	-6.12%
CCc1noc(CS(=O)(=O)C(C)C(=O)NC2CC2)n1 (stereo not given)	11.32%	2.842%
NC(=O)[C@@H]1Cc2ccccc2CO1	-2.549%	-15.17%
COCCNC(=O)c1cc2ccccc2[nH]1	34.04%	16.61%
OCCN1CCOc2ncccc21	-10.65%	-0.03245%
CN(C)C(=O)c1cn(C)nc1C(F)(F)F	-8.869%	-17.51%
CC(C)c1nccn1CC(=O)NC(=O)NC1CC1	-0.8394%	3.76%
CSCc1nc(CNC(=O)c2cc(C)no2)cs1	44.39%	18.95%
COCC(=O)NC1CCc2ccccc21 (stereo not given)	53.68%	46.44%
Cn1nc2n(c1=O)CCN(Cc1ccc(Br)s1)CC2	44.89%	71.51%
Cc1cncc(C(=O)Nc2cc(O)cc(F)c2)c1	22.97%	22.13%
COCc1nc(C)c(CNC(=O)c2cccc(C)n2)s1	19.06%	10.86%
O=C(Cc1cc(F)ccc1F)N[C@H]1CCCNC1	4.259%	-7.664%
O=C(NCCCNc1cccnc1)C1CCCO1 (stereo not given)	22.3%	-15.92%
O=C(NCCc1ccc(F)c(F)c1)N1CCCC(O)C1 (stereo not given)	70.31%	19.11%
Oc1cccc(C2CNCCO2)c1 (stereo not given)	23.92%	4.632%
CC(=O)c1cccc(C(=O)N2C[C@H](C3CC3)[C@@H](N)C2)c1	20.3%	-2.264%
CC(C)N(CCN(C)C)C(=O)Nc1cccnn1	4.971%	-2.376%
O=C(NC1C=CS(=O)(=O)C1)c1cnc2ccccc2c1 (stereo not given)	30.91%	14.9%
CN(C)[C@@H]1CN(C(=O)c2ccnnc2)C[C@H]1CO	2.618%	7.595%
O=C1CCCN1CC1CCCCN1 (stereo not given)	-0.2696%	1.394%
Cc1cnc(C(=O)NCCSCc2ccco2)cn1	55.05%	28.65%
CN(C)CCn1cnc2ccccc21	0.09333%	-5.458%

Some entries from above, unchanged:

CN1C(=O)C[C@@H](N)[C@@H]1c1ccc(Cl)c(Cl)c1 gave Mtb glucose medium: 19.2%; Mtb cholesterol medium: -1.328%.
NCC1(CCO)CCOC1 (stereo not given) gave Mtb glucose medium: 2.84%; Mtb cholesterol medium: 4.673%.
COCc1nc(CNc2nc(N)ncc2C)no1 gave Mtb glucose medium: 3.715%; Mtb cholesterol medium: 9.848%.
CC(C)N(CCN(C)C)C(=O)Nc1cccnn1 gave Mtb glucose medium: 4.971%; Mtb cholesterol medium: -2.376%.
CC1(C(=O)NCC2CCCCC2)CCCCC(=O)N1 (stereo not given) gave Mtb glucose medium: -5.329%; Mtb cholesterol medium: -19.17%.
O=C(Cc1cc(F)ccc1F)N[C@H]1CCCNC1 gave Mtb glucose medium: 4.259%; Mtb cholesterol medium: -7.664%.

Source: ChEMBL document CHEMBL3988442, “University of Dundee, Small-Polar-MMV Screening Library” (2021).